# Data: the supplement of paper PMC4683952
# Where a name gives a salt, the structure may show the parent alone. The list shows a part of the results. Rule as the data show it: active = 2.5 or more and inactive = the rest. Most values lie within the scatter of the assay; repeated measurements hardly agree.
# Tested on: Lgr5 (MarsCy1-Lgr5-EGFP, U2OS)
# Test: cell-surface Lgr5 expression (SCi1 fluorescence, background-subtracted) relative to WT control (fold of WT control); higher = more Lgr5 at the plasma membrane
# Settings: U2OS MarsCy1-Lgr5-EGFP stable; treatment time: overnight; library: Prestwick; 20 µM
row,SMILES,cell-surface Lgr5 expression
1,"CC[C@@]1(O)C(=O)OCc2c1cc1n(c2=O)Cc2cc3ccccc3nc2-1 [Camptothecine (S,+)]",inactive: 0.472
2,CCC(=O)O[C@@](Cc1ccccc1)(c1ccccc1)[C@@H](C)CN(C)C [Levopropoxyphene napsylate],inactive: 1.27
3,CCCCc1ccc(C(=O)O)nc1 [Fusaric acid],inactive: 1.67
4,CCCN1C[C@H](CSC)C[C@@H]2c3cccc4[nH]cc(c34)C[C@H]21 [Pergolide mesylate],inactive: 1.66
5,O[C@@H]1CCCC[C@H]1N1CCC(c2ccccc2)CC1 [L(-)-vesamicol hydrochloride],inactive: 1.31
6,C[N+]1([O-])[C@@H]2C[C@@H](OC(=O)[C@H](CO)c3ccccc3)C[C@H]1[C@@H]1O[C@@H]12 (stereo partly drawn) [Scopolamin-N-oxide hydrobromide],inactive: 0.814
7,C[C@]12N[C@H](Cc3ccccc31)c1ccccc12 [Dizocilpine maleate],inactive: 1.27
8,CC(=O)O[C@H]1C[C@H](O[C@H]2[C@@H](O)C[C@H](O[C@H]3[C@@H](O)C[C@H](O[C@H]4CC[C@@]5(C)[C@H](CC[C@@H]6[C@@H]5C[C@@H](O)[C@]5(C)[C@@H](C7=CC(=O)OC7)CC[C@]65O)C4)O[C@@H]3C)O[C@@H]2C)O[C@H](C)[C@H]1O[C@@H]1O[C@H](CO)[C@@H](O)[C@H](O)[C@H]1O [Lanatoside C],inactive: 1.06
9,COc1ccc(CCN2CCC(Nc3nc4ccccc4n3Cc3ccc(F)cc3)CC2)cc1 [Astemizole],inactive: 0.725
10,CN1C[C@H](CO)C=C2c3cccc4[nH]cc(c34)C[C@H]21 [Lysergol],inactive: 0.413
11,C/C=C1\C[C@@H](C)[C@](O)(CO)C(=O)OCC2=CCN3CC[C@@H](OC1=O)[C@@H]23 [Retrorsine],inactive: 2.22
12,CC1=C2[C@H]3OC(=O)[C@@H](C)[C@@H]3CC[C@@]2(C)C=CC1=O [alpha-Santonin],inactive: 0.807
13,Fc1ccc(C(OCCN2CCN(CCCc3ccccc3)CC2)c2ccc(F)cc2)cc1,inactive: 0.948
14,CC(C)(C)NCC(O)c1cc(Cl)c(N)c(Cl)c1 (stereo not drawn) [Clenbuterol hydrochloride],active: 2.69
15,COC(=O)C1=CCCN(C)C1 [Arecoline hydrobromide],inactive: 1.69
16,C[C@@H]1NCCc2cc(O)c(O)cc21 [Salsolinol hydrobromide],active: 3
17,CCC1(CC)C(=O)C=CNC1=O [Pyrithyldione],active: 2.84
18,COc1ccc(Cc2nccc3cc(OC)c(OC)cc23)cc1OC [Papaverine hydrochloride],active: 3.92

# Pulled by structure from the list above (2):
row,SMILES,cell-surface Lgr5 expression
6,C[N+]1([O-])[C@@H]2C[C@@H](OC(=O)[C@H](CO)c3ccccc3)C[C@H]1[C@@H]1O[C@@H]12 (stereo partly drawn) [Scopolamin-N-oxide hydrobromide],inactive: 0.814
13,Fc1ccc(C(OCCN2CCN(CCCc3ccccc3)CC2)c2ccc(F)cc2)cc1,inactive: 0.948
